# Results from patent US6287572A, “Anti-HIV peptides and proteins” (Oxford Biomedica (UK) Limited, priority 1997, dated 2001).
# Part of at least one peptide drawing is inferred or uncertain, most often the ends. Ends that are not written are not given here.
# Key:
# HIV-1IIIB virus [1] = assay: Peptide inhibition experiment, U937 culture; format: cell-based; conditions: for inhibition of HIV-1 replication by peptide (in words): Table 2
# Description: (§1) A series of overlapping p17 derived 1 5mer peptides were used. The peptides were dissolved in phosphate-buffered saline pH 7.0 and used at a final concentration of 200 mg/ml. For each peptide, 2×10^5 U937 cells were pelleted and resuspended in […] media containing […] of a stock of HIV-1IIIB virus (giving a multiplicity of infection of 0.25) and 200 mg/ml of the appropriate peptide. Following incubation for two days, the cells were pelleted and resuspended in fresh media containing peptide. After a further three days incubation, […] of the culture was removed and added to 1×10^5 C8166 cells in a total volume of […] with the appropriate peptide. Samples of both the U937 and C8166 culture supernatants were taken after a further two and three days incubation and assayed for RT activity. In addition, the C8166 cells were visually inspected for the appearance of syncytia on day three.
# HIV-1IIIB virus [2] = assay: Peptide inhibition experiment, C8166 culture; format: cell-based; conditions: peptide 200 mg/ml, RT activity in supernatant
# Description: as §1
sequence,measurement,setting,value
"LKHIVWASRELERFA [Mutant 31-45, LKHIVWASRELERFA]",inhibition of HIV-1 replication by peptide (in words),HIV-1IIIB virus [1],inhibitory
LGQLQPSLQTGSEEL [Mutant 61-75],"RT titer, C8166 day 2",HIV-1IIIB virus [2]; day 2,15.4 × 10^3 cpm/ml
same,"RT titer, C8166 day 3",HIV-1IIIB virus [2]; day 3,21.9 × 10^3 cpm/ml
same,"RT titer, U937 day 7","HIV-1IIIB virus [1]; peptide 200 mg/ml, RT activity in supernatant, U937, day 7",2.1 × 10^3 cpm/ml
same,"RT titer, U937 day 8","HIV-1IIIB virus [1]; peptide 200 mg/ml, RT activity in supernatant, U937, day 8",5.7 × 10^3 cpm/ml
"LERFAVNPGLLETSE [Mutant 41-55, LERFAVNPGLLETSE]",inhibition of HIV-1 replication by peptide (in words),HIV-1IIIB virus [1],inhibitory
